Here are results for 65 compounds from the supplement of paper PMC11150407.

About 45 (2%) of roughly 3,000 compounds showed an effect of 50% or more. Some of the results follow.

This experiment has as its system MOLM1 and UCSD/AML1 (averaged). Kind of experiment: cell viability relative to DMSO control (POC); higher = less growth inhibition. As to conditions: 1 µM; 72 h. As for the experimental part:
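Primary viability screen in the 3q26 EVI1-high AML cell lines MOLM1 and UCSD/AML1, compounds at 1 uM for 72 h. ATP CellTiter-Glo read-out given as percent viable over DMSO control (POC), averaged over duplicates. This mapping covers the TimTec NDL-3000 natural derivative library, whose compounds are identified by TimTec catalogue codes (ST...).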
As to `Cc1cc2[nH]c(=O)cc(C)c2c(C)c1S(=O)(=O)N1CCCCC1`, the cell viability stood at 112%.
Consider `O=C(CCNc1cccc(Br)c1)c1cc2ccccc2oc1=O`, for which the cell viability is 103%.
Consider `CCOC(=O)C1=C(C)N(C)C(=O)NC1c1cc(Br)c(O)c(OC)c1` (stereo not given), for which the cell viability was 116%.
For `N#C/C(=C\c1c[nH]c2ccccc12)C(=O)N1CCc2ccccc2C1`, the cell viability amounted to 97.1%.
For the compound `O=[N+]([O-])c1ccc(-c2csc(N3CCc4ccccc4C3)n2)cc1`, the cell viability is 86.3%.
In the case of `COc1ccc(C2c3[nH]c4ccccc4c3CCN2Cc2cccc(F)c2)cc1` (stereo not given), the cell viability stood at 94.4%.
For `COc1ccc(-c2c(-c3ccccc3)c3ccc(O)cc3oc2=O)cc1OC`, the cell viability was 104%.
As to `O=C(O)CSc1nc2nc[nH]c(=O)c2[nH]1`, the cell viability came out at 89.4%.
Turning to `Cc1ccc2c(c1)C1C=CCC1C(C(=O)O)N2` (stereo not given), the cell viability came to 94%.
In the case of `COc1cc(C(=O)Nc2c(C)c(C)c3c(c2C)NC(=O)CO3)cc(OC)c1OC` it was 117%.
Turning to `COc1ccc(/C=C/C(=O)c2ccccc2)cc1COc1ccc([N+](=O)[O-])cc1`, the cell viability was found to be 101%.
For the compound `O=C(Cn1c(=O)cc(C(=O)NCc2ccccc2)c2ccccc21)Nc1cccc(Cl)c1`, the cell viability turned out to be 103%.
`CC(Nc1n[nH]c(=S)[nH]c1=O)C(=O)OCc1ccccc1` (stereo not given): the cell viability turned out to be 97.2%.
`OC[C@H]1O[C@H](O[C@H]2[C@H](O)[C@@H](O)[C@@H](O)O[C@@H]2CO)[C@H](O)[C@@H](O)[C@@H]1O`: the cell viability came to 89.7%.
In the case of `COc1ccc(C2c3[nH]c4ccccc4c3CCN2C(=O)c2cccs2)cc1` (stereo not given), the cell viability is 105%.
As to `CC1CCN(C(=O)CSc2nc3ccccc3c(=O)[nH]2)CC1`, the cell viability turned out to be 93.8%.
As for `Cc1ccc2[nH]c(C)c(CCNC(=O)Nc3ccc(Cl)cc3)c2c1`, the cell viability was found to be 92.2%.
In the case of `O=C(NCCCO)C(=O)NCCCO` it was 102%; in that of `COc1ccc2c(c1)c(CC(=O)NCCc1ccccc1)c(C)n2C(=O)c1ccc(Cl)cc1`, 99.1%.
Consider `CNC(=O)c1ccccc1NC(=O)C(=O)c1c[nH]c2ccccc12`, for which the cell viability turned out to be 111%.
Consider `CCOC(=O)C1=C(C)NC2=C(C(=O)CC(c3ccc(Cl)cc3)C2)C1c1ccc(O)c(OC)c1` (stereo not given), for which the cell viability turned out to be 101%.
On to `COc1ccc(-c2nc(CSc3nc4c(=O)[nH]c(C)nc4n3C)c(C)o2)cc1`, for which the cell viability was found to be 104%.
Regarding `CCN1C(=O)NC(c2cc(Br)c(O)c(OC)c2)C(C(=O)OC(C)C)=C1C` (stereo not given), the cell viability is 109%.
In the case of `COc1ccc(C(=O)Nc2ccc(Cn3ccnc3)cc2)cc1OC`, the cell viability stood at 103%.
Regarding `COc1cc(C(=O)N2CCCc3cccc(OC)c32)cc(OC)c1OC`, the cell viability amounted to 82.3%.
Turning to `Cc1cccc(CSc2nc3c(=O)[nH]cnc3n2C)c1`, the cell viability turned out to be 89.3%.
Consider `COc1ccc(C(=O)CCNc2ccc3ncn(C)c3c2)cc1OC`, for which the cell viability worked out at 99.9%.
Turning to `O=C(O)/C=C/C(=O)c1ccc(Cl)cc1`, the cell viability was 92.2%.
As to `COCCOC(=O)c1c(C)n(CCOc2ccc(Cl)cc2C)c2c1cc(O)c1ccccc12`, the cell viability was 95.4%.
In the case of `NC(N)=NCCC[C@H](NC(=O)OCC1c2ccccc2-c2ccccc21)C(=O)O`, the cell viability is 114%.
With `N#CC1=C(N)Oc2c(oc(CO)cc2=O)C1c1ccc(Br)cc1` (stereo not given), the cell viability stood at 96.5%.
Consider `CCCNC(=O)c1cc(=O)n(CC(=O)Nc2ccccc2F)c2ccccc12`, for which the cell viability amounted to 87.9%.
In the case of `Cc1ccc(C(=O)CC(NCc2ccccc2)C(=O)O)cc1` (stereo not given) it was 105%; in that of `CCOc1ccccc1C1C2CCCCC2(O)CCN1C(=O)/C=C/c1ccc(OC)cc1` (stereo not given), 101%.
As to `CC(=O)OC1CCC2(C)C(CCC3(C)C2C(=O)C=C2C4CC(C)(C(=O)Nc5ccccc5[N+](=O)[O-])CCC4(C)CCC23C)C1(C)C` (stereo not given), the cell viability came to 108%.
Consider `Nc1ncnc2c1ncn2[C@@H]1O[C@H](COP(=O)(O)O)[C@H](O)C1O` (stereo not given in full), for which the cell viability stood at 94.8%.
As for `O=C(CSc1ncnc2nc[nH]c12)NCCOc1ccc(Cl)cc1`, the cell viability came to 95.2%.
On to `O=C(Nc1ccc(Cl)cc1)c1ccc2c(c1O)C(=O)c1ccccc1C2=O`, for which the cell viability came out at 99.3%.
Take `O=C(CSc1nc2ccccc2c(=O)[nH]1)NCc1ccccc1Cl`: the cell viability turned out to be 107%.
For the compound `CC(=O)OC1C(CO)OC(n2cnc3c(N)ncnc32)C1OC(C)=O` (stereo not given), the cell viability worked out at 99.7%.
As for `Cc1ccc(OCCNC(=O)C(=O)NCCC(C)C)cc1`, the figure is 104%; as for `COc1cc(C(=O)NC(=S)Nc2cccc(Cl)c2C)cc(OC)c1OC`, 87.6%; as for `Cn1c(SCC(=O)Nc2ccc(Br)cc2)nc2c(=O)[nH]cnc21`, 108%.
For the compound `N#CC1=C(N)Oc2[nH]c(=O)[nH]c(=O)c2C1c1ccccc1` (stereo not given), the cell viability came out at 108%.
As for `CCC(=O)NC(c1ccc(OC)c(OC)c1)c1nccc2cc(OC)c(OC)cc12` (stereo not given), the figure is 92.8%; as for `O=C(Cn1c(=O)cc(C(=O)N2CCOCC2)c2ccccc21)Nc1ccc(F)cc1`, 89.1%.
As for `CN(CC(=O)N1CCc2ccccc2C1)S(=O)(=O)c1cc(Cl)ccc1Cl`, the figure is 91.5%; as for `O=c1[nH]c2c(-c3ccccc3)cccc2c(O)c1C(c1cccc(Br)c1)c1c(O)c2ccccc2n(-c2ccccc2)c1=O` (stereo not given), 122%.
In the case of `Cc1[nH]c2ccc(OC(F)(F)F)cc2c1CCNC(=O)c1cccc(F)c1F`, the cell viability was determined as 93.6%.
As for `COc1ccc(C2c3[nH]c4ccccc4c3CCN2CC(=O)NC2CCCCC2)cc1` (stereo not given), the cell viability turned out to be 83.7%.
Turning to `CCc1ccccc1NC(=O)CSc1nc2c(=O)[nH]cnc2n1CC`, the cell viability came out at 97.7%.
As to `COc1cc(C2NC(=O)NC(C)=C2C(=O)OC2CCC(C)CC2)ccc1O` (stereo not given), the cell viability came to 104%.
Take `CCCc1cc(=O)[nH]c(SCC(=O)Nc2c(Cl)cccc2Cl)n1`: the cell viability came to 88.8%.
With `Cc1cccc(NC(=O)CSc2nc3c(=O)[nH]cnc3n2C)c1C`, the cell viability is 95.1%.
On to `Cc1nc(NC(CC(C)C)C(=O)O)c2nc(C)oc2n1` (stereo not given), for which the cell viability came out at 106%.
As to `CCCNC(=O)c1cc(=O)n(CC(=O)Nc2ccccc2)c2ccccc12`, the cell viability amounted to 99.4%.
`COc1cc(C2C(C(=O)OCCOc3ccccc3)=C(C)NC3=C2C(=O)CC(C)(C)C3)cc(OC)c1O` (stereo not given): the cell viability worked out at 89%.
As for `COc1ccccc1-c1c(C(F)(F)F)oc2cc(OC(=O)c3ccccc3F)ccc2c1=O`, the figure is 102%; as for `COc1ccc(C)cc1NC(=O)C(=O)NCc1ccccc1`, 101%.
Turning to `COc1cc(C(=O)Nc2ccccc2NC(=O)c2cc(OC)c(OC)c(OC)c2)cc(OC)c1OC`, the cell viability was found to be 95.9%.
Consider `COc1ccc(N2CCN(C(=O)c3c[nH]c4ccccc34)CC2)cc1`, for which the cell viability was found to be 107%.
Consider `CCOC(=O)CNC(=O)c1c(Cl)cccc1Cl`, for which the cell viability came to 108%.
As to `C=CCN(C(=O)CSc1nc2c(=O)[nH]cnc2n1CC)c1ccccc1`, the cell viability was 109%.
Take `CCCCOC(=O)c1ccc(NC(=O)c2ccc(OC)c(OC)c2)cc1`: the cell viability was determined as 93.6%.
In the case of `O=C1C2OCC(O2)[C@H]2[C@@H]1[C@H]1C=Cc3ccccc3N1[C@@H]2C(=O)c1ccccc1` (stereo not given in full) it was 89.2%.

What is called cell viability is a read-out of living cells in per cent, often relative to untreated cells.
